Reference: patent US8680233B2, “Heteropeptides useful for reducing nonspecific adsorption” (Valorisation-Recherche, Limited Partnership, priority 2009, dated 2014)
pEC50, pKd: −log10 of the molar value. At least one structure is not confirmed: it was looked up by name or label, or the drawing left a doubt. Numbered stars: 1 amine (or outer) side, 2 acyl side, 3 side chain; on linkers, the order of the positions; unused ones are H or OH. Square brackets hold non-standard residues; d marks the D form. Peptide text beside a SMILES is read from it. Haic = O=C1[C@@H](N[*:1])CCc2cccc3c2N1[C@H](C(=O)[*:2])C3; dTrp(2-Me) = Cc1[nH]c2ccccc2c1C[C@@H](N)C(=O)O

By UniProt entry, the sequences of proteins in these tests, tags left out. Residues count along the entry.
UniProt P16671, 30-439 limits assumed: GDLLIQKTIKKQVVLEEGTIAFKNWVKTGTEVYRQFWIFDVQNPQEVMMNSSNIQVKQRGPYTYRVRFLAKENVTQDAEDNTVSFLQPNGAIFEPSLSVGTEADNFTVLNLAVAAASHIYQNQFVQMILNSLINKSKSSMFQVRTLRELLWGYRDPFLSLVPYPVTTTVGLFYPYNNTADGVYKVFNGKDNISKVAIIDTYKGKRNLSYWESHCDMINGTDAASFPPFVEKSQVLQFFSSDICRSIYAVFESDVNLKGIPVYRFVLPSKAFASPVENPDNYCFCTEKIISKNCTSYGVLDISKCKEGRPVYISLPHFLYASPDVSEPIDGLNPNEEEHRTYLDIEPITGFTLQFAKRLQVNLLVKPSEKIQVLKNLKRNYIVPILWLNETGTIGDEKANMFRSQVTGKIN

Legend:
[1] = target: recombinant soluble His-tagged CD36 (Homo sapiens, UniProt P16671); experiment: SPR screening of peptide ligands on a CD36 functionalized sensor; assay type: binding; conditions: linear Langmuir plot
Description: The SPR sensors for screening small peptidic ligand binding to a recombinant soluble His-tagged CD36 functionalized surfaces were prepared as described above. Five ligands were investigated: EP80317, CP-2B(i), CP-3(iv), CP-2A(v) and DBG-178(27) with concentrations ranging from 30 μM to 100 nM except for EP80317. The latter was used for optimizing the system with solutions ranging from 1 mM to 100 nM. EP80317 (HAIC-2MeDTrp-DLys-Trp-D-Phe-Lys-NH2) is a positive control of known activity, CP-2B(i) (His-DTrp-AzaLeu-Trp-DPhe-Ala-NH2) is a negative control, and CP-3(iv) (Ala-DTrp-Ala-AzaPhe-DPhe-Lys-NH2), CP-2A(v) (His-DTrp-AzaGly-Trp-DPhe-Lys-NH2) and DBG-178(27) (His-DTrp-Ala-azaTyr-DPhe-Lys-NH2) are novel CD36 ligands (see PCT publication No. WO 08/154,738). Another negative control was accomplished by exposing the His-tagged hDHFR functionalized surface to the same concentration of CD36 peptidic ligand. […]
The SPR setup was used for investigating the structure-activity relationships of various CD36 peptidic ligands. […] The measured KD's were compared to the EC50 values obtained in the activated src-kinase assay following CD36 receptor activation by the tested peptides. […] For CD36-peptidic ligands, a correlation appears between the affinity binding of the small peptides for CD36 as determined by SPR and their efficiency to produce a cellular response in the src kinase assay. […]

CD36 receptor = CD36 receptor (Homo sapiens, UniProt P16671); experiment: SRC-kinase cellular assay following CD36 receptor activation; assay type: cell-based; conditions: activation of src-kinases after CD36 receptor activation
From the text: The SPR setup was used for investigating the structure-activity relationships of various CD36 peptidic ligands. […] The measured KD's were compared to the EC50 values obtained in the activated src-kinase assay following CD36 receptor activation by the tested peptides. […] For the src-kinase cellular assay, the response sensitivity (EC50) for the tested peptides (in decreasing order) was as follows: EP80317>CP-2A(v)>CP-3(iv)>DBG-178(27)>CP-2B(i). With SPR, the binding affinity to CD36, in decreasing order, was: DBG-178(27)>CP-2A(v)>EP80317>CP-3(iv)>CP-2B(i). […] For CD36-peptidic ligands, a correlation appears between the affinity binding of the small peptides for CD36 as determined by SPR and their efficiency to produce a cellular response in the src kinase assay. Thus, SPR appears as a selective and sensitive method to screen for CD36 ligands.

Which results are given for `Cc1[nH]c2ccccc2c1C[C@@H](NC(=O)[C@@H]1Cc2cccc3c2N1C(=O)[C@@H](N)CC3)C(=O)N[C@H](CCCCN)C(=O)N[C@@H](Cc1c[nH]c2ccccc12)C(=O)N[C@H](Cc1ccccc1)C(=O)N[C@@H](CCCCN)C(N)=O` [EP80317, HAIC-2MeDTrp-DLys-Trp-D-Phe-Lys-NH2] (Haic-[dTrp(2-Me)][dK]W[dF]K-NH2; N-terminus assumed)?
pKd [1]: 7.09; pEC50 (CD36 receptor): 7.59
